Assay results as given in article PMC4060102, “Improved Histone Deacetylase Inhibitors as Therapeutics for the Neurodegenerative Disease Friedreich's Ataxia: A New Synthetic Route” (Pharmaceuticals, 2011).

Assays:
[1] = cited from earlier work

| Compound | central nervous system penetration [1] | Kp (in vivo) |
| --- | --- | --- |
| Nc1ccccc1NC(=O)c1ccc(CNC(=O)OCc2cccnc2)cc1 [MS-275, reference compound] | does not penetrate the central nervous system |  |
| Cc1ccc(C(=O)NCCCCCC(=O)Nc2ccccc2N)cc1 [compound 109] |  | 0.1 to 0.15 |
